In the test the test system is CD2F1 mice, Lymphoma 8 ip, survival T/C. Briefly: NCI In Vivo Anticancer Drug Screen. Data for tumor model Lymphoma 8 (intraperitoneal) in CD2F1 (CDF1) mice. Conditions: vehicle: saline, higher T/C = longer survival. As for the experimental part:
The antitumor activity of compounds was measured in mice bearing transplantable tumors. Survival or tumor size were measured and the results are expressed as the measurement made in the treated group (T) divided by the measurement made in the vehicle treated control group (C). The tumor model used in this assay is Lymphoma 8 (intraperitoneal) in CD2F1 (CDF1) mice

The list shows only some results of the screen, not a fair sample: its compounds were picked by chemical class. Not every dose and run of a compound is shown. T/C is the treated group as % of the vehicle group. Some doses have a count of surviving animals in place of a T/C: the source holds a T/C of zero for them, seemingly a mark for toxic or unscored doses. Some survivor counts are full or nearly so, which does not show that the dose was tolerated: the source hardly ever lists a survival T/C far under the control, and the zero likely stands for such cases as well. Survivors were counted at the toxicity check, usually on the fifth day, unless a day is given; later deaths do not show. Schedules are NCI's codes, taken here to give the interval after Q, in days (D) or hours (H), and the number of doses after X. Some entries hold several experiments; their values stand side by side, smallest first. For survival time, the PubChem record calls one and a half times the control and up active, and a quarter to a half above the control has no call in these data; cut-offs in other NCI protocols can differ. Marks such as (2×) say how often a value occurs here. Some T/C values are followed by the survivors on the day toxicity was checked, most often the fifth; where neither a count nor a note follows, no animal had died by that day.

For the compound `Nc1cc([As]=O)ccc1O` (stereo not drawn), the T/C runs as follows: (T/C endpoint: median survival time, dose: 12.5 mg/kg/injection, schedule: Q01DX009 (ip)) 110 % of control; (T/C endpoint: median survival time, dose: 25.0 mg/kg/injection, schedule: Q01DX009 (ip)) 116 % of control; (T/C endpoint: median survival time, dose: 50.0 mg/kg/injection, schedule: Q01DX009 (ip)) 111 % of control [9 of 10 alive]. The survivor count (T/C endpoint: median survival time, dose: 75.0 mg/kg/injection, schedule: Q01DX009 (ip)) was 0 of 10.
On to `CN(N=O)C(=N)N[N+](=O)[O-]`, for which the T/C was 105 and 125 % of control (T/C endpoint: survival time, mean or median, dose: 8.0 mg/kg/injection, schedule: Q01DX010 (ip)); 110 and 140 % of control (T/C endpoint: survival time, mean or median, dose: 16.0 mg/kg/injection, schedule: Q01DX010 (ip)); 90 % of control (2×) (T/C endpoint: survival time, mean or median, dose: 32.0 mg/kg/injection, schedule: Q01DX010 (ip)). The survivor count (T/C endpoint: survival time, mean or median, dose: 64.0 mg/kg/injection, schedule: Q01DX010 (ip)) was 5 of 6 and 6 of 6.

These data come from PubChem BioAssay AID244 (DTP/NCI, 2004).
